This assay concerns the target h5-HT2B (Homo sapiens, UniProt P41595). In words: Competition radioligand binding.

Sequences of proteins named here, by UniProt entry; tags and fusion partners are left off.
UniProt P41595, whole entry: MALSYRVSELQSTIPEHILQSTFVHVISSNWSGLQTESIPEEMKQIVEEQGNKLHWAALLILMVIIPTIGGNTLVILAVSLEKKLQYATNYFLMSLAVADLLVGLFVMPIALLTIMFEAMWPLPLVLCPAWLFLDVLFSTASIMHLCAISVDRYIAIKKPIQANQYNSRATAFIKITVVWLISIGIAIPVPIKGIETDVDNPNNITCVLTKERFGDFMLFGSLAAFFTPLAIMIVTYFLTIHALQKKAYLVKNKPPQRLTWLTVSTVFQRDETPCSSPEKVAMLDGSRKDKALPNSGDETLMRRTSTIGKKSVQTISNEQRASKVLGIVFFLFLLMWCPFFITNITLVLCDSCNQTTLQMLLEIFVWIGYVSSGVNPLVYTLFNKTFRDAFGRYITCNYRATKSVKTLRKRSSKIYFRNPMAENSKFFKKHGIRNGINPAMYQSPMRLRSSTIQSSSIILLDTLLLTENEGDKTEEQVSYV

Compound `CC[C@@H](CO)NC(=O)[C@@H]1C=C2c3cccc4c3c(cn4C)C[C@H]2N(C)C1` [Methysergide, reference compound] registered a Ki of 2.4 nM.

These data come from publication PMC2910240 (Neuroscience letters, 2010).
